Paper PMC5799184, “Gs- versus Golf-dependent functional selectivity mediated by the dopamine D1 receptor” (Nature Communications, 2018)
These are yes or no findings as the source states them, for the method shown. Binding seen in cells or lysates may run through a third protein. Some results given as binding are weak or reduced against the parent protein; the word gives no strength.

Protein sequences, listed by entry. Tags and fused reporters are not part of them. Lines headed by an entry give the natural chain unless they say otherwise; changes in a name come on top.
UniProt P21728: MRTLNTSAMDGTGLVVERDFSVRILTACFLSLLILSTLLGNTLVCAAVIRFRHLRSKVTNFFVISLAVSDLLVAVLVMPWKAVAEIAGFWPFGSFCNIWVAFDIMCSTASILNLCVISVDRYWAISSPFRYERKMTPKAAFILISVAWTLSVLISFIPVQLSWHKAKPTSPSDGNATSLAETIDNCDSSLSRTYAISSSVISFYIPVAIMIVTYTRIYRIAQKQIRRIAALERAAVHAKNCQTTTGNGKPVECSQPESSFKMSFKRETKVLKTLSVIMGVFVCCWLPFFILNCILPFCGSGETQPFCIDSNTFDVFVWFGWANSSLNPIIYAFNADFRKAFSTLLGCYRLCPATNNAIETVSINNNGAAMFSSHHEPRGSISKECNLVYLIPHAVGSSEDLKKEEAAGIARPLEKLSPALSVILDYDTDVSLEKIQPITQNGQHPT
UniProt P11229: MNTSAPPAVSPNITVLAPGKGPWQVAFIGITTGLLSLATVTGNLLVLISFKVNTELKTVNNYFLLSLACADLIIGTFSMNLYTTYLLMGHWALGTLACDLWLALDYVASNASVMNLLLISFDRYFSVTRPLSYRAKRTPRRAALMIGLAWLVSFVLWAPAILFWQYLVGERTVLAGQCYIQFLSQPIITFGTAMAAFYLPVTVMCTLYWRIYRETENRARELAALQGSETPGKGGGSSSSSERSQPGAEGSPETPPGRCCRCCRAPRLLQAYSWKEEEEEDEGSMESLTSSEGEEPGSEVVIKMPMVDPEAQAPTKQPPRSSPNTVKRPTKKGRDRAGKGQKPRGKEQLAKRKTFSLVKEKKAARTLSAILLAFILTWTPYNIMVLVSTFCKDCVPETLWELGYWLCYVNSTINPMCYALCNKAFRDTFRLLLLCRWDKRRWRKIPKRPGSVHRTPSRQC
UniProt O95622: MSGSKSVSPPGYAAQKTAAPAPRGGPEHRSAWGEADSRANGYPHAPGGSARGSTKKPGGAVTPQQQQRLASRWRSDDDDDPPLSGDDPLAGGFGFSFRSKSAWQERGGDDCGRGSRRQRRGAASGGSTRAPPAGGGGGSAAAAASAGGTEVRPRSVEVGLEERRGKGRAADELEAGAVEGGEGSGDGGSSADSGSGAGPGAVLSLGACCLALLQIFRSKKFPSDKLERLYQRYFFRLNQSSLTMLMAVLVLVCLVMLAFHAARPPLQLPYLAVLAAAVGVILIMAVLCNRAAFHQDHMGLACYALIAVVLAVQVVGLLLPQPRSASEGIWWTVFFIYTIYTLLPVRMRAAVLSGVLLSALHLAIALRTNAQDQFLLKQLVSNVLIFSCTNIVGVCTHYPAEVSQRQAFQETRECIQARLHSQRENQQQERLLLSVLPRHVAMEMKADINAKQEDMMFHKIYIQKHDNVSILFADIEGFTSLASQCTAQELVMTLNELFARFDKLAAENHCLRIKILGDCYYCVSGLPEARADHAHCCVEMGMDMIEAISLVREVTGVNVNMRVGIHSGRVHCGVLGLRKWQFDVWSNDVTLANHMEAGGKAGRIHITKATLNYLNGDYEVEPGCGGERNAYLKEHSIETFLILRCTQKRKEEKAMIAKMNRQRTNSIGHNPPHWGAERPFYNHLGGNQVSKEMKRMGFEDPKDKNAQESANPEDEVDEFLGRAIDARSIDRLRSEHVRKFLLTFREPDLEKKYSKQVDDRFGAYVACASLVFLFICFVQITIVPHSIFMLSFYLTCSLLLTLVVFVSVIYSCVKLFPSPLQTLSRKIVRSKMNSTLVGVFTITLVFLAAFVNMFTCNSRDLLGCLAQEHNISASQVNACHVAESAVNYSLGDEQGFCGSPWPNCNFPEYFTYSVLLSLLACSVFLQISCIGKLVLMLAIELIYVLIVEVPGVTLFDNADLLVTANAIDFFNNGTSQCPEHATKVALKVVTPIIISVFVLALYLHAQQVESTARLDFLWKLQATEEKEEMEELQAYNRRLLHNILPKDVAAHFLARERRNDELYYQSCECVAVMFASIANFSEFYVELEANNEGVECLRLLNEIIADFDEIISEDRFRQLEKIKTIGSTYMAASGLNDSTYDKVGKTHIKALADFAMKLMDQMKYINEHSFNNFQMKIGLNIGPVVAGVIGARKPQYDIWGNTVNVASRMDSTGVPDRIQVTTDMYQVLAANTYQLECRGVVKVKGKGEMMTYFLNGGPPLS
UniProt P38405: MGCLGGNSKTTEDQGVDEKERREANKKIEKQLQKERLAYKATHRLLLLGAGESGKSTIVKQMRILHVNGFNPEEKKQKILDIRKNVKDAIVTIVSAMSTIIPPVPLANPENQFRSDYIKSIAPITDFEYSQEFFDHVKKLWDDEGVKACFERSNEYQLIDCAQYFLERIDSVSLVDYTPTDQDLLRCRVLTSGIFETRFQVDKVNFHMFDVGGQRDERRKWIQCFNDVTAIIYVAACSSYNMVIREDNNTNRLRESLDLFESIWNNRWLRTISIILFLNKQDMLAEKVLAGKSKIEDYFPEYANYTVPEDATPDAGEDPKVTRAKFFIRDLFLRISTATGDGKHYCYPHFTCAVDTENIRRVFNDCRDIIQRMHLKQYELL
UniProt P63096: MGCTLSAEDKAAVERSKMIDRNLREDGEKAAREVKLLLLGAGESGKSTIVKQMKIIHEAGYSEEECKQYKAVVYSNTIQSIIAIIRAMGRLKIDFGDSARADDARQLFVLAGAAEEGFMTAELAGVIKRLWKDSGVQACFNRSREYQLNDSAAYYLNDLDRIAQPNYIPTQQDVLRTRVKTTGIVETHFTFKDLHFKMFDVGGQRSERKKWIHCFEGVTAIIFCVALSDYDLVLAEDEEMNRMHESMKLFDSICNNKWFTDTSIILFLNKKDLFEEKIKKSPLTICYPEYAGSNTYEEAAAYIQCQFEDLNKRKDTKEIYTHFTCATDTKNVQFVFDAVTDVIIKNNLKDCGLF
UniProt P32121: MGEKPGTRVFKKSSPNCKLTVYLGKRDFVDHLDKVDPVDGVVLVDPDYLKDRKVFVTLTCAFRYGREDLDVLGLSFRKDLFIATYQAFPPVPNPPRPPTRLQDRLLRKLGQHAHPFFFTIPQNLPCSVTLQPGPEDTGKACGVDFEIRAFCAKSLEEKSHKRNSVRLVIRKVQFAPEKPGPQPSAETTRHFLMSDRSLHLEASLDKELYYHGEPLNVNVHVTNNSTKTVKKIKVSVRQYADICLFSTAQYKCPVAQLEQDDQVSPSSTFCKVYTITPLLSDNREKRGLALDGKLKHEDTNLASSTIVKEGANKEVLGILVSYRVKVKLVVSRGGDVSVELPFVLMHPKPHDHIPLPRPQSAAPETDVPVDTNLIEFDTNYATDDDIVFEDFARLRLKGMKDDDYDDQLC
UniProt P50148: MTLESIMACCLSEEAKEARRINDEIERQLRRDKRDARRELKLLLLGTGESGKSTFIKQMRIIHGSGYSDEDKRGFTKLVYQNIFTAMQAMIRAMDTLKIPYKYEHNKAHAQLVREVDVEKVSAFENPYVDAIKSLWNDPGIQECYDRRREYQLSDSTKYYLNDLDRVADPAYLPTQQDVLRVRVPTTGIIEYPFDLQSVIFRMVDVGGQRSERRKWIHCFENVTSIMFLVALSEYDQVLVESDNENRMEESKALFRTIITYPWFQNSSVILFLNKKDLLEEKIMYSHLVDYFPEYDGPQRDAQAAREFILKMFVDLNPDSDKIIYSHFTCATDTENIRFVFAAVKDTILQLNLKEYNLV

Tests used:
[1] = biological target: dopamine D1 receptor fused to Renilla Luciferase 8 (human) (UniProt P21728); test: FRET or BRET; β-arrestin-2 recruitment BRET in intact transfected HEK-293T cells; D1R-Rluc donor, β-arrestin-2-Venus acceptor; GRK2 co-transfected; D1R agonists added
[2] = biological target: dopamine D1 receptor fused to Renilla Luciferase 8 (human) (UniProt P21728); test: FRET or BRET; receptor-Gα engagement BRET1 in intact transfected HEK-293T cells in PBS; receptor-Rluc donor, Gα-Venus acceptor; 5 µM coelenterazine H, agonists (DA, NE, SKF38393, SKF81297, SKF82958, NPA, DHX, A77636; carbachol for M1R) added one minute later; BRET change = ratio with drug minus ratio without …
[3] = biological target: muscarinic M1 receptor (human) (UniProt P11229); test: as above
[4] = biological target: Adenylate cyclase 5 fused to NanoLuc (UniProt O95622); test: FRET or BRET; Gα-AC5 interaction BRET in intact transfected HEK-293T cells; AC5-Nluc donor, Gαss-Venus or Gαolf-Venus acceptor; D1R co-expressed and D1R agonists (DA, NE, SKF38393, SKF81297, DHX) added

| binding [1] | binding [2] | binding [3] | binding [4] | Substance |
| --- | --- | --- | --- | --- |
|  | binds |  |  | Golf/s_33–38 chimera fused to Venus (from UniProt P38405 1-381) |
|  | no binding |  |  | Gαi1 fused to Venus (from UniProt P63096 1-354) |
|  | binds |  | binds | Gαolf fused to Venus (from UniProt P38405 1-381) |

Continued, substance first:

| Substance | binding [1] | binding [2] | binding [3] | binding [4] |
| --- | --- | --- | --- | --- |
| mVenus-fused β-arrestin-2 (from UniProt P32121 1-409) | binds |  |  |  |
| Gαq fused to Venus (from UniProt P50148 1-359) |  | no binding | binds |  |
